Data taken from publication PMC9562184.
These are yes or no findings as the source states them, for the method shown. Binding seen in cells or lysates may run through a third protein. For some assays here: Binding can be weak; no strength is given. Tags and fused reporters may be left off the sequences shown.

Tests used:
Flag–HDAC1-C domain = test: co-IP; exogenous: HEK293T cells co-transfected with tagged plasmids; lysates incubated with tag antibodies (anti-HA, anti-Myc, anti-Flag) and protein G-Sepharose overnight at 4 °C, washed four times with lysis buffer (50 mM Tris–Cl, 150 mM NaCl, 1% NP40, 0.5% sodium deoxycholate, 1% SDS, pH 8.0), Western blot; in some panels cells with stable Myc–CREPT or CREPT KO, Flag–HDAC1 or siHDAC1, or with Wnt3a for 20 h
Flag–HDAC1-N domain = test: as above

B1: Myc–CREPT (cell cycle-related and expression-elevated protein in tumor) (protein, UniProt Q9NQG5 1-326)
chain: MSSFSESALEKKLSELSNSQQSVQTLSLWLIHHRKHAGPIVSVWHRELRKAKSNRKLTFLYLANDVIQNSKRKGPEFTREFESVLVDAFSHVAREADEGCKKPLERLLNIWQERSVYGGEFIQQLKLSMEDSKSPPPKATEEKKSLKRTFQQIQEEEDDDYPGSYSPQDPSAGPLLTEELIKALQDLENAASGDATVRQKIASLPQEVQDVSLLEKITDKEAAERLSKTVDEACLLLAEYNGRLAAELEDRRQLARMLVEYTQNQKDVLSEKEKKLEEYKQKLARVTQVRKELKSHIQSLPDLSLLPNVTGGLAPLPSAGDLFSTD
**Q.** B1 was tested. Which binding (Flag–HDAC1-C domain) did it give?
**A.** The binding was “no binding”.

**Q.** What about the binding (Flag–HDAC1-N domain) of the same binder?
**A.** Its binding is “binds”.
